Measurements as given in publication doi:10.1101/585497.
No constants are given. Whether binding was seen depends on the method and setting. In cells and extracts the contact can be indirect. Some entries that bind do so weakly or less than the wild type.

Amino acid sequences for entries named in this document (tags omitted).
UniProt P25963: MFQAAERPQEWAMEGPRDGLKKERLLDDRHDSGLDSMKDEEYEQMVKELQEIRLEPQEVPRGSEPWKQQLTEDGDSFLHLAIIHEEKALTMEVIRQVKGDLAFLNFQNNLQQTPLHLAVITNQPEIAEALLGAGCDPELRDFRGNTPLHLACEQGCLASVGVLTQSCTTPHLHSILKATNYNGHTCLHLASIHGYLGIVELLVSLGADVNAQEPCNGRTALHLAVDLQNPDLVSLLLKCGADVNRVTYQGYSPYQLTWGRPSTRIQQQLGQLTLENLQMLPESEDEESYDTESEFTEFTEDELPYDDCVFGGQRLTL
UniProt P49790: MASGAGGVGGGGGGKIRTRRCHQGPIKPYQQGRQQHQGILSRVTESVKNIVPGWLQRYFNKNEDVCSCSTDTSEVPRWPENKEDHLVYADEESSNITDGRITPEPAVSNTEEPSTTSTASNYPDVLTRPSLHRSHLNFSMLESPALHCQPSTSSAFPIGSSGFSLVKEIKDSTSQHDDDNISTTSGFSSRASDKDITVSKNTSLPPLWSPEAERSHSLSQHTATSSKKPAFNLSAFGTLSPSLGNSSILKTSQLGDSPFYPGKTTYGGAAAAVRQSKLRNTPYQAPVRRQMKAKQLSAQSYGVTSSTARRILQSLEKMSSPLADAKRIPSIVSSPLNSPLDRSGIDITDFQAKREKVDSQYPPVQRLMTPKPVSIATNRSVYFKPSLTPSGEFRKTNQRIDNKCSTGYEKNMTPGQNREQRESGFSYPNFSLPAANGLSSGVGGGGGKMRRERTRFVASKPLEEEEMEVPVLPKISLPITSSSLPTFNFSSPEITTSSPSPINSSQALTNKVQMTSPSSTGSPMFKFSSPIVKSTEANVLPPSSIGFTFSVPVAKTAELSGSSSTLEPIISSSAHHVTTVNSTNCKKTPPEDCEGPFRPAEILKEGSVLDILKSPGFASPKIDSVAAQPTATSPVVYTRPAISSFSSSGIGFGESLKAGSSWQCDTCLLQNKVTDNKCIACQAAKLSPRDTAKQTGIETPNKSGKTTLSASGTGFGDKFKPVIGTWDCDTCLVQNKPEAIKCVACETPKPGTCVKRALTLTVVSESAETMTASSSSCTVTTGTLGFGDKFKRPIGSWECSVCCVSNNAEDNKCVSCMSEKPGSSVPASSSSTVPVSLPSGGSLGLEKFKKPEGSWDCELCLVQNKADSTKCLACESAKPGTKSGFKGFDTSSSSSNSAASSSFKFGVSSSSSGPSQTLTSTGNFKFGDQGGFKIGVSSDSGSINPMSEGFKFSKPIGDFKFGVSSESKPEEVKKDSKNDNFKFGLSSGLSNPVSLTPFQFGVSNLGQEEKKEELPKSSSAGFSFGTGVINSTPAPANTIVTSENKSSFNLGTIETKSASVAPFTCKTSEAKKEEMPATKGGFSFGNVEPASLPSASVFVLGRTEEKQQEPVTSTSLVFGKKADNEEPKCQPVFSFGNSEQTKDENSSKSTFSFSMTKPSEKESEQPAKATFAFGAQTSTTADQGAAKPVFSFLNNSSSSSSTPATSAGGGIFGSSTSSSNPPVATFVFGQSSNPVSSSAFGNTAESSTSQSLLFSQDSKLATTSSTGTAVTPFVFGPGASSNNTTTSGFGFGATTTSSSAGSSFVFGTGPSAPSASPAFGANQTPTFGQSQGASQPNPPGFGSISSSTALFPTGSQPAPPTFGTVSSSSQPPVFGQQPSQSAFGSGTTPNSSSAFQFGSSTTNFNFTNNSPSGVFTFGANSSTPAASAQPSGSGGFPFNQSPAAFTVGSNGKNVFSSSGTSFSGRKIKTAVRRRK

How the values were obtained:
[1] = target: N-terminally mEmerald (GFP)-tagged IκBα (UniProt P25963); assay: co-IP
[2] = target: endogenous IκBα (HepG2) (human (endogenous in HepG2)) (UniProt P25963); assay: co-IP

Row | binding [1] | binding [2] | Substance
1 | binds | – | Nup153 (endogenous, HEK293T) (from UniProt P49790 1-1475)
2 | – | binds | Nup153 (endogenous, HepG2) (from UniProt P49790 1-1475)
